Some of the results follow. These are further read-outs of the screen, such as a control signal, another cell line or another target. No call is given for them. Most of these compounds were active or inconclusive in the main read-out, so they are no random draw. The note in brackets gives the kind of curve behind each potency; many fits are weak.
Experiment: qHTS Assay for Lipid Storage Modulators in Drosophila S3 Cells;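 for cell number change: cells counted by Cell Tracker Red CMTPX staining in the red channel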
Settings: BODIPY lipid droplet fluorescence, 18-24 h; for cell number change: measured here: cell count max response, cells fed with added oleic acid
How it was run: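 Drosophila S3 cells got compounds at several concentrations plus oleic acid (400 uM solution). Laser-scanning cytometry with 488 nm excitation read lipid droplets at 500-530 nm and cells at 575-640 nm. Percent activity was relative to 20 uM Triacsin C.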

[1] = measured here: lipid fluorescence (Fed channel) AC50, cells fed with added oleic acid
[2] = measured here: cell number channel AC50, cells fed with added oleic acid

| SMILES | AC50 [1] | cell number change [%] | AC50 [2] |
| --- | --- | --- | --- |
| CCCN(c1ccccc1F)S(=O)(=O)c1cc(-c2cc(C)no2)ccc1OC | 5.8 µM [falling, full curve] |  |  |
| Cc1nonc1C(=O)N/N=C/c1ccc(O)c(O)c1 |  | 14.2 |  |
| O=c1ccc2cc(S(=O)(=O)N3CCN(c4ccccc4F)CC3)ccc2[nH]1 | 6.51 µM [falling, single point] | -13.3 |  |
| COc1cc2ccc3c(CCN(C)C)cc(OC)c(OC)c3c2cc1OC | 0.651 µM [rising, single point] | 13.5 |  |
| CCc1ccc(N(CC(=O)NCc2ccco2)C(=O)CCC(=O)Nc2nccs2)cc1 | 0.58 µM [rising, single point] | 12.2 |  |
| CC(C)(NO)/C(=N\O)c1ccc(Cl)cc1 | 2.31 µM [rising, single point] | -14 |  |
| Cc1ccoc1C(=O)NCCCNC(=O)c1occc1C | 8.2 µM [falling, partial curve] | -49.7 | 10.3 µM [falling, partial curve, poor fit] |
| CCOC(=O)c1ccc(NC(=O)CC2C(=O)N(c3ccccc3)C(=O)N2CCCOC)cc1 (stereo not given) | 6.51 µM [rising, single point] | 56.6 | 6.51 µM [rising, partial curve] |
| CCOC(=O)C1=C(C)N(C)C(C)=C(C(=O)OCC)C1c1ccncc1 | 9.2 µM [rising, partial curve] | -4.3 |  |
| Cc1ccc2c(c1)N(CC(=O)NCCCN1CCCCC1)C(=O)CO2 | 35.5 µM [falling, single point] | 6.58 |  |
| Cc1cccc(C(=O)OCC(=O)NN2C(=O)NC3(CCCCC3)C2=O)c1 | 0.00651 µM [falling, full curve, poor fit] | -13.6 |  |
| CCOC(=O)c1sc(N(Cc2ccccc2)C(=O)CSc2nnc(C3CC3)n2N)nc1C |  | -21.7 | 2.59 µM [falling, single point] |
| COc1cccc(CN(C)c2nc(-c3cccs3)nc3ccccc23)c1 | 0.164 µM [rising, full curve, poor fit] | 37.4 | 18.4 µM [rising, partial curve] |
| O=C(O)c1[nH]c2ccccc2c1NS(=O)(=O)Cc1ccccc1 |  | 10.3 |  |
| O=C(CSc1ccc(Cl)cc1)N/N=C/c1cccnc1 |  | 5.85 |  |
| N=c1n(CCN2CCCCC2)c2ccccc2n1CC(O)COc1ccccc1 (stereo not given) | 14.6 µM [rising, single point] | 27.2 |  |
| C=CCc1ccccc1OCC(O)CN(C(C)C)C(C)C (stereo not given) | 6.51 µM [falling, single point] | -24.6 |  |
| O=C(Nc1nccs1)c1cc(-c2ccccn2)nc2c(Cl)cccc12 | 3.26 µM [falling, single point] |  | 2.31 µM [falling, single point] |
| CC(C)NS(=O)(=O)c1ccc(OCC(=O)NC(C)c2ccccc2)cc1 (stereo not given) |  | 2.77 |  |
| COc1ccc(N2CCN(C(=O)CCC(=O)NNc3nc4ccccc4c4nc(C)nn34)CC2)cc1 | 3.66 µM [falling, single point] | 16.3 |  |
| Cc1ccc(NC(=O)c2ccccc2-c2ccc(C(F)(F)F)cc2)cc1S(=O)(=O)N1CCOCC1 |  | 2.51 |  |

| SMILES | AC50 [1] | cell number change [%] | AC50 [2] |
| --- | --- | --- | --- |
| Cc1cc(C(=O)CSc2nc3ccccc3[nH]2)c(C)n1C | 0.366 µM [rising, full curve] |  | 1.03 µM [rising, full curve] |
| CCCNS(=O)(=O)c1ccc(OCC(=O)OC)cc1 |  | -14.6 | 0.00461 µM [falling, full curve, poor fit] |
| CCOC(=O)/C(=N/Nc1ccc(Cl)cc1)S(=O)(=O)c1ccccc1 | 18.4 µM [rising, partial curve] | 34.6 | 9.2 µM [rising, partial curve, poor fit] |
| CC1(C)CC(=O)C=C(Nc2ccc(Cl)cc2)C1 | 8.2 µM [rising, partial curve, poor fit] | 18.6 |  |
| O=C(CSc1nc(SCC(=O)NCc2ccccc2)n(-c2ccccc2)n1)NCc1ccccc1 | 0.731 µM [rising, partial curve, poor fit] | -11.1 | 0.82 µM [rising, full curve] |
| CCOc1ccccc1-c1nc(CN2CCCC2c2nccs2)c(C)o1 (stereo not given) | 0.103 µM [rising, full curve, poor fit] | 9.46 |  |
| COc1ccc2oc(-c3ccccc3)c(C(=O)O)c2c1 | 29.1 µM [rising, single point] | 11.5 |  |
| O=C(Nc1ccccn1)c1ccc([N+](=O)[O-])o1 | 18.4 µM [falling, partial curve] |  |  |
| Cc1ccc(CSc2nc3nc(C)cc(C)c3c(=O)[nH]2)cc1 | 4.61 µM [falling, partial curve] | 35.1 | 16.4 µM [rising, partial curve, poor fit] |
| Cc1cccc(NS(=O)(=O)c2cnc[nH]2)c1 | 0.731 µM [falling, full curve] | -14.8 |  |
| CCC(=O)N1CCN(C(=O)CC)C1c1ccccc1 |  | -64.2 | 16.4 µM [falling, single point] |
| Cc1cccc(N2C(=O)c3ccc(C(=O)Nc4ccccn4)cc3C2=O)c1 | 6.51 µM [falling, full curve] | -37.6 | 0.00461 µM [falling, full curve, poor fit] |
| CC(C)NC(=O)CSc1ccccc1C(=O)N1CCN(S(=O)(=O)Cc2ccccc2)CC1 |  | 9.64 |  |
| C/C(=N/Nc1ncc(Br)cn1)c1ccc(Br)cc1 | 1.16 µM [falling, partial curve, poor fit] | -9.89 |  |
| CN(C)Cc1c(C(=O)N/N=C/c2ccccc2OCc2ccc(F)cc2)nnn1-c1nonc1N |  | -0.855 |  |
| CCN(c1ccccc1)C1(O)C(=O)c2ccccc2C1=O | 0.731 µM [falling, single point] | -7.61 |  |
| CC(=Nc1ccccc1)c1sc2ccccc2c1O |  | 42 | 29.1 µM [rising, single point] |
| CCCc1cc(C(=O)OC)c2ccccc2n1 | 8.2 µM [rising, partial curve] | -5.18 |  |
| CC(C)N(CCNC(=O)c1ccc(NC2=NC3CS(=O)(=O)CC3S2)cc1)Cc1ccco1 (stereo not given) | 29.1 µM [rising, single point] | 8.34 |  |
| CCc1ccc(-c2cc(C)no2)cc1S(=O)(=O)N1CCN(c2ccc(F)cc2)CC1 | 4.11 µM [rising, full curve] | 13.1 |  |
| COc1cc(CN(C)C(C)C(=O)Nc2ccc([N+](=O)[O-])cc2Cl)ccc1OC(F)F (stereo not given) | 29.1 µM [rising, single point] | -20 |  |

Part of the list above, showing only AC50 [2] and cell number change [%]:
SMILES,AC50 [2],cell number change [%]
CC(C)NS(=O)(=O)c1ccc(OCC(=O)NC(C)c2ccccc2)cc1 (stereo not given),,2.77
COc1ccc(N2CCN(C(=O)CCC(=O)NNc3nc4ccccc4c4nc(C)nn34)CC2)cc1,,16.3

Later entries.

| SMILES | AC50 [1] | cell number change [%] | AC50 [2] |
| --- | --- | --- | --- |
| Cc1cc(C)nc(OC(=O)c2ccc(Cl)cc2Cl)n1 | 0.00461 µM [falling, full curve, poor fit] | -7.69 |  |
| OC(Cn1nnc2ccccc21)Cn1c(C(F)(F)F)nc2ccccc21 (stereo not given) | 29.1 µM [falling, single point] | -25.5 |  |
| O=C(CCCc1ccccc1)Nc1ccccc1[N+](=O)[O-] |  | 8.41 |  |
| Cc1ccc(S(=O)(=O)NCCSc2nnnn2-c2ccc(C(N)=O)cc2)cc1 |  | 42 | 0.651 µM [rising, partial curve] |
| Cc1ccccc1Cn1ccc(=NCc2ccccc2)cc1 | 29.1 µM [falling, single point] | -33.9 |  |
| Cc1cc(OC(F)F)ccc1NC(=O)Nc1ccc([N+](=O)[O-])cc1 | 23.1 µM [falling, single point] | -45.1 | 29.1 µM [falling, single point] |
| N#Cc1c(NC(=O)CCCl)sc2c1CCCCC2 |  | 16.1 |  |
| CC1Sc2ccc(S(=O)(=O)N3CCC(C(=O)NCc4ccco4)CC3)cc2NC1=O (stereo not given) | 0.58 µM [rising, single point] | 14.4 |  |
| Cc1occc1C(=O)NCc1nc(-c2ccccc2)no1 | 5.62 µM [falling, single point] | -9.21 |  |
| Cc1ccc([N+](=O)[O-])cc1NC(=O)CSc1n[nH]c(-c2cccnc2)n1 | 0.651 µM [rising, partial curve, poor fit] | 23 | 0.13 µM [rising, full curve, poor fit] |
| Cc1cccc(NC(=O)COc2ccc3oc4c(c3c2)CCCC4)n1 | 13 µM [rising, partial curve] | 4.57 |  |
| CC1=C(C(=O)Nc2ccccc2C(=O)N2CCCCC2)SCCO1 | 29.1 µM [falling, single point] | -8.73 |  |
| O=CN1CCN(C(=O)c2ccccc2F)CC1 | 6.51 µM [rising, single point] | -1.62 |  |
| O=C(NCCc1ccc(Cl)cc1)c1ccc2nc[nH]c2c1 | 18.4 µM [rising, partial curve] | 191 | 0.58 µM [rising, single point] |
| O=C(O)c1ccccc1C(=O)c1cccc2ccccc12 |  | 72.1 | 18.4 µM [rising, partial curve] |
| COc1ccccc1Nc1ncc(-c2cccs2)s1 | 16.4 µM [falling, single point] | 3.66 |  |
| N#Cc1ccc(NC(=O)COC(=O)C2Cc3ccccc3CN2C(=O)c2ccccc2)cc1 (stereo not given) | 1.16 µM [rising, partial curve] | 10.8 |  |
| Cc1cc(C)c(C(=O)CN2C(=O)NC3(CCC(C)CC3)C2=O)cc1C (stereo not given) | 29.1 µM [rising, partial curve, poor fit] | 21.2 |  |
| Cc1nnc(SCC(=O)Nc2sc3c(c2C#N)CCCC3)[nH]c1=O |  | 18.7 |  |

Reference: PubChem BioAssay AID2685 (National Center for Advancing Translational Sciences (NCATS), 2010)
